Assay results published in PubChem BioAssay AID1347423 (Functional Genomics Laboratory (NCATS/FGL), 2020).
Among all 52,000 sequences or so, about 210 (0.4%) were called active.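 Rule for the calls: active = gene whose silencing raises cell survival under the drug, median off-target-corrected z-score across its silencing RNAs 2 or more; inactive = the rest.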 This is one part of the list.

Test: Resistance to Poly (ADP-Ribose) Polymerase inhibitor: Gene Identification via Genome-wide siRNA Screen
Settings: mouse BRCA2 R2336H ES cells, olaparib, CellTiter-Glo viability; stronger effect = higher value
Summary of the method: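 Mouse BRCA2 R2336H ES cells were reverse-transfected with siRNA (20 nM final), treated at 48 h with 500 nM olaparib, and read by CellTiter-Glo after 72 h. Scores: MAD-based z per siRNA, median per gene, seed off-target correction.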

Question: For “CGAGCACAGUGACUACUACTT against A930021H16Rik”, which z-score is on record?
Answer: inactive: -1.27

Question: For GCGGCAAUUCAAAUGAGUCTT against Rnf14, which z-score is on record?
Answer: inactive: 0.256

Question: For GGAGUACGAGGAGAUUAUGTT against Ubtf, which z-score is on record?
Answer: inactive: -0.505

Question: For GCUAUCAAUACCUCAGUUATT against Syt2, which z-score is on record?
Answer: inactive: 1.24

Question: Which z-score does the source give for GGACUUCCUAUGAAGACAUTT against Neu4 here?
Answer: inactive: 0.0851

Question: For CCCAUUAAAAAUCGUUCUGTT against Rcl1, which z-score is on record?
Answer: inactive: -2.11

Question: For GGGUUAAAUGGUUUUAACATT against E2f7, which z-score is on record?
Answer: inactive: 0.959

Question: Which z-score does the source give for GGACAGCUACCUCAUCCAUTT against Grcc3f here?
Answer: inactive: -0.825

Question: For ACACUUGCAUCAUCUUUGCTT against Olfr740, which z-score is on record?
Answer: inactive: -0.846

Question: With CCAGCUUCAUGCGUUUAAATT against Stx16 as the sequence, how does the z-score read?
Answer: inactive: 1.07

Question: Which z-score does the source give for GGAAUCAUCUGAACACACATT against Ctcf here?
Answer: inactive: 1.31

Question: Which z-score does the source give for CGGGAUAUCAUCUGAAUAATT against Disp1 here?
Answer: inactive: -2.11

Question: Which z-score does the source give for GACCUGUUUUGUCUUUUGCTT against Ms4a4c here?
Answer: inactive: 0.341

Question: With “GGUUCUUUUUACUCAGUGGTT against 9130019P20Rik” as the sequence, how does the z-score read?
Answer: inactive: 0.0201

Question: For “GGAAGAAAGAGUGUAUCAATT against 4833405L16Rik”, which z-score is on record?
Answer: inactive: -0.21

Question: With CCGGACUCAGGGUUAAAGUTT against Apoc4 as the sequence, how does the z-score read?
Answer: inactive: -0.737

Question: Which z-score does the source give for CGGGCAGUACUAUGAUUUGTT against Ppp1cc here?
Answer: inactive: -0.141

Question: With GGUUUCGUCUUGAUAUCUATT against Trpc1 as the sequence, how does the z-score read?
Answer: inactive: 0.0388

Question: With “GGAAAUCAAGCUGAAGUUATT against 4930579C15Rik” as the sequence, how does the z-score read?
Answer: inactive: 1.46

Question: For GGAGAAGUUUAAGGAGAUUTT against Dnajb5, which z-score is on record?
Answer: inactive: -0.391

Question: For GGUAAAAAAUGCUUUCAACTT against Olfr1008, which z-score is on record?
Answer: inactive: 0.547

Question: With GGGACAUUUCUGUAUUGAGTT against Psg21 as the sequence, how does the z-score read?
Answer: inactive: -0.435

Question: For GCAAGACUUGCUGAUAGAGTT against Cyp2j6, which z-score is on record?
Answer: inactive: 0.19

Question: With CGGACUAUUGGAGACCAACTT against Gpsm2 as the sequence, how does the z-score read?
Answer: inactive: 1.34

Question: Which z-score does the source give for “GCAAAAUUUACUGUUAGACTT against 4930511H11Rik” here?
Answer: inactive: 2.28

Question: With GGUUGUUUAUACCUGUGAUTT against Cfh as the sequence, how does the z-score read?
Answer: inactive: -0.654

Question: With GCUGUCGUUGAAGGCAUUGTT against Olfr317 as the sequence, how does the z-score read?
Answer: inactive: -0.568

Question: With GGGAGCUUUCCAGUAACUGTT against Rfng as the sequence, how does the z-score read?
Answer: inactive: -0.336

Question: Which z-score does the source give for GGAUAUUUUGGACUCCUUATT against Gm1382 here?
Answer: inactive: 0.314

Question: Which z-score does the source give for GGGCAAGGUGAAGCAUUAATT against Numa1 here?
Answer: inactive: -1.85

Question: With GGUUCAGUGCUUUGUGUUCTT against Il2rg as the sequence, how does the z-score read?
Answer: inactive: -0.148

Question: With GGAGCAGAUGUCAACAAAATT against Invs as the sequence, how does the z-score read?
Answer: inactive: 1.25

Question: With CCAAAGCUAGGUCAUUUUATT against Slc31a2 as the sequence, how does the z-score read?
Answer: inactive: 0.72

Question: With “GGUUCUAAACCUAGCUUUUTT against 9030227G01Rik” as the sequence, how does the z-score read?
Answer: inactive: -0.456

Question: For GUGCUUCUGAUCUCCUACATT against Olfr223, which z-score is on record?
Answer: inactive: 0.804

Question: For CCUAGCAGUACUGUACGGUTT against Kns2, which z-score is on record?
Answer: inactive: 0.123

Question: Which z-score does the source give for GGUACAAGAUAUUGUGAAATT against Fgd3 here?
Answer: inactive: -1.08

Question: With GGUGUAGCAACCAACCCAATT against Tpsg1 as the sequence, how does the z-score read?
Answer: inactive: 0.306

Question: Which z-score does the source give for GGCAGAGCCAGAAAAAUUGTT against Slc30a1 here?
Answer: inactive: 0.162

Question: Which z-score does the source give for GGACAGAGGACAAGCAGAATT against Ghrl here?
Answer: inactive: -1.15

Question: With GGUGCAGUUUUAUACCUAUTT against Rtn4rl1 as the sequence, how does the z-score read?
Answer: inactive: 0.619

Question: With “GGACAUUGUUGUGACAGUGTT against 4930579E17Rik” as the sequence, how does the z-score read?
Answer: inactive: -1.81

Question: Which z-score does the source give for CCCAGACGAGAACUGUAUCTT against Sqrdl here?
Answer: inactive: -1.2

Question: For GGCCGAAGAAGGAGAAUUGTT against Gdap10, which z-score is on record?
Answer: inactive: -0.401

Question: Which z-score does the source give for “GCAAUGUCUUCAAUGAUCATT against 4932413O14Rik” here?
Answer: inactive: -0.794

Question: For “GGAAAUGAAAAAGUUCUGGTT against 2010106G01Rik”, which z-score is on record?
Answer: inactive: -1.02

Question: Which z-score does the source give for CCUAAGACCCUCAGAAAACTT against Pcdhb7 here?
Answer: inactive: -0.338

Question: Which z-score does the source give for GGCCCACAAGAAGAACAAGTT against Zfp423 here?
Answer: inactive: 0.729

Question: With GCGAGCGGCUGUCUAUUAATT against Nkiras2 as the sequence, how does the z-score read?
Answer: inactive: 0.319

Question: Which z-score does the source give for GGUCCUUUAAGGUCGAUCATT against Mllt3 here?
Answer: inactive: 0.507

Question: Which z-score does the source give for GGCAAGUUUCCUCUGCCUUTT against Gbgt1 here?
Answer: inactive: 0.408

Question: Which z-score does the source give for GGAAUACUUCCUGAAGGAATT against Ms4a3 here?
Answer: inactive: -1.67

Question: Which z-score does the source give for GGUCACUGUAAUGAUUUAUTT against Klhdc1 here?
Answer: inactive: -0.0539

Question: For AAUGCAGGUUAUUGUGGGATT against LOC384639, which z-score is on record?
Answer: inactive: 0.519

Question: For GGAUGAACACAAAGAACCCTT against Serpinb12, which z-score is on record?
Answer: inactive: 0.905

Question: For GGAGUUUGAACAUAUGAAGTT against Rcn1, which z-score is on record?
Answer: inactive: 1.52

Question: With GGUUGUGAUGUGGUGGUCATT against Mdh2 as the sequence, how does the z-score read?
Answer: inactive: 0.222

Question: With GGUGGACGUACUUUUUAACTT against Gata3 as the sequence, how does the z-score read?
Answer: inactive: 1.51

Question: Which z-score does the source give for GGAAUUGUUGUCAACAAUCTT against BC005537 here?
Answer: inactive: 0.755

Question: With GCAGAAAGCACACUCCUACTT against Psors1c2 as the sequence, how does the z-score read?
Answer: inactive: -0.476

Question: For CCAGAAACCAAUCUUUCUUTT against Serpinb1a, which z-score is on record?
Answer: inactive: 0.293

Question: For GGCAAGCUGUAAAAGAUGCTT against AF233884, which z-score is on record?
Answer: inactive: -0.208

Question: Which z-score does the source give for GGGAAUAGUUUAUAUGGACTT against Ccl20 here?
Answer: inactive: 0.459

Question: With CCUUGUGGAUUCUCACUACTT against AI838661 as the sequence, how does the z-score read?
Answer: inactive: -2.51

Question: Which z-score does the source give for “GGCCACUGGGUUUUUCCUGTT against 2310061A22Rik” here?
Answer: inactive: 0.22

Question: With “GGGUAUUGAUCAUUUUUGGTT against A430107D22Rik” as the sequence, how does the z-score read?
Answer: inactive: 0.137

Question: With GGUGAGUUUUGCUAAAAGUTT against Syp as the sequence, how does the z-score read?
Answer: inactive: 1.62
